Data from PubChem BioAssay AID743255 (National Center for Advancing Translational Sciences (NCATS), 2014).
The whole screen tested about 390,000 compounds, of which about 910 (0.23%) were called active. The inconclusive results got no clear call from the source; some entries with a clear call stand among them for comparison. Calls come from the whole dose curve; as a rule, active = well fitted inhibition curve with a large enough effect; inconclusive = small, poorly fitted or top-dose-only effect; inactive = no such curve, though single readings can be large or run the other way. A potency beside an inconclusive call is a rough fit, not a confirmed value.

By UniProt entry, the sequences of proteins in these tests, tags left out. Where a name states a change or a piece, a line headed by the entry shows the natural chain unless it says otherwise.
UniProt O94782: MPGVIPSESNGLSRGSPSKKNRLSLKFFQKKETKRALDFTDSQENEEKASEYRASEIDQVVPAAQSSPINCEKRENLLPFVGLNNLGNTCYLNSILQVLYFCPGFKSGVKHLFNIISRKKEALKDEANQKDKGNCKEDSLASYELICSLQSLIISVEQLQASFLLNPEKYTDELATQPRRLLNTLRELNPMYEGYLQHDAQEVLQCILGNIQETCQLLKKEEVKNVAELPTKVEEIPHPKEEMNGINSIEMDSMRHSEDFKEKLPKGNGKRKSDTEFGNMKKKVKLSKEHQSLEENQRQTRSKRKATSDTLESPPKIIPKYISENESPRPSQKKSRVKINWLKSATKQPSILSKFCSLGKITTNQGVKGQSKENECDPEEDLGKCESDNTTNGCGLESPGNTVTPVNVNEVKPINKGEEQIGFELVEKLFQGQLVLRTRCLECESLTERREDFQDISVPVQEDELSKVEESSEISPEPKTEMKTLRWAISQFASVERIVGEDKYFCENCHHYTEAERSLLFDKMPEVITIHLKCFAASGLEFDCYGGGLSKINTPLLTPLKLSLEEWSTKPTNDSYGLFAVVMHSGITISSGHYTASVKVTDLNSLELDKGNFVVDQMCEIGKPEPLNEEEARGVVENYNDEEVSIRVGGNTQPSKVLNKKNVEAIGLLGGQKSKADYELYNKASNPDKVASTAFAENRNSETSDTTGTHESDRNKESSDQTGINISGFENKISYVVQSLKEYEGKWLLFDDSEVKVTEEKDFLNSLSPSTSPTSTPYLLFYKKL

Molecular target: Ubiquitin carboxyl-terminal hydrolase 1 (Homo sapiens) (UniProt O94782)
Test: Inhibitors of USP1/UAF1: Primary Screen; note: nearly all actives have a fitted effect of over 60% in size
Settings: recombinant USP1/UAF1, Ub-Rhodamine cleavage fluorescence; series mostly up to 57.1 µM
Outline: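 USP1/UAF1 complex at 1 nM was preincubated with compound for 15 min at room temperature, then Ub-Rho substrate (150nM final) was added. Fluorescence (480/540 nm) was read kinetically, 6 reads every 60 seconds.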
Potency is the fitted concentration of half-maximal effect.

Potency, inconclusive:
CC1(C(=O)CSc2nc3ccccc3s2)CCC(=O)O1 (stereo not given) 35.5 µM [inhibitor, partial curve], CCCCN(CC)C(=O)c1cc2cc3ccc(Cl)cc3nc2o1 44.7 µM [inhibitor, partial curve, poor fit], Cc1nnc(N2CCCC(C(=O)Nc3ccccc3C(F)(F)F)C2)c2nn(-c3ccccc3)c(C)c12 (stereo not given) 2.82 µM [inhibitor, full curve], O=C(OCc1ccccc1)N1CCC2CC1c1c(-c3ccc(C(F)(F)F)cc3)cccc12 (stereo not given) 126 µM [inhibitor, partial curve, poor fit], COc1ccc(Cl)cc1NC(=O)Cn1nnc2sc3c(c2c1=O)CCC(C(C)(C)C)C3 (stereo not given) 5.01 µM [inhibitor, partial curve, poor fit], COc1cc(-c2nc3cnccn3c2Nc2c(C)cccc2C)ccc1O 0.631 µM [inhibitor, full curve, poor fit], COc1ccc(S(=O)(=O)N(C)C[C@H]2Oc3cc(Br)ccc3S(=O)(=O)N([C@H](C)CO)C[C@H]2C)cc1 28.2 µM [inhibitor, partial curve], Cc1cccc(Oc2nc3ccccn3c(=O)c2/C=C(\C#N)c2nc3ccccc3s2)c1C 35.5 µM [inhibitor, partial curve, poor fit], CC(OC(=O)c1cn(-c2ccccc2)nc1-c1cccnc1)C(N)=O (stereo not given) 0.708 µM [inhibitor, full curve, poor fit], Fc1ccc(-c2nc3c4ccccc4ccn3c2Cc2ccccc2)cc1 0.251 µM [inhibitor, full curve, poor fit], S=C(NCCN1CCOCC1)N/N=C/c1c2ccccc2cc2ccccc12 44.7 µM [inhibitor, partial curve, poor fit], CCOc1cccc(OCCCOc2cccc3cccnc23)c1 39.8 µM [inhibitor, partial curve], O=C(Nc1cccc(S(=O)(=O)N2CCCCC2)c1)C1COc2ccccc2O1 (stereo not given) 1.41 µM [inhibitor, full curve, poor fit], COc1ccc(OC)c(NC(=O)c2ccc(-c3nc(CSc4ccccc4)c(C)o3)cc2)c1 17.8 µM [inhibitor, partial curve, poor fit], COc1cccc2sc3cc(C#CC4(O)CCCCC4)ccc3c(=O)c12 35.5 µM [inhibitor, partial curve], O=C1c2ccccc2-c2nc3ccccc3cc21 0.562 µM [inhibitor, full curve, poor fit], Cc1cc(NC(=O)c2cn(C3CCCCC3)c(=O)c3c2c2ccccc2n3C)no1 31.6 µM [inhibitor, partial curve], CCOc1cc2[nH]c(=O)n(Cc3ccc(C(=O)NCCOC)cc3)c(=O)c2cc1OCC 3.98 µM [inhibitor, partial curve], Cc1ccc(-c2csc(N(CCO)CCCn3c(C(F)(F)F)nc4ccccc43)n2)cc1 56.2 µM [inhibitor, partial curve, poor fit], COc1ccc(C=NNc2ccc(S(=O)(=O)Nc3ccccc3C(=O)O)cc2[N+](=O)[O-])c(OC)c1 44.7 µM [inhibitor, partial curve, poor fit], Cc1cccn2c(Nc3ccccc3)c(-c3ccc(N4CCOCC4)cc3)nc12 2.51 µM [inhibitor, partial curve], COC(=O)c1ccsc1NC(=O)C1=COCCO1 0.355 µM [inhibitor, full curve, poor fit], O=C(O)CN1C(=O)/C(=C\c2ccccc2OCc2ccc(Cl)cc2)SC1=S 39.8 µM [inhibitor, partial curve, poor fit]

Potency, inactive:
CCOc1nc(NC(=O)NS(=O)(=O)Oc2cccc(F)c2)nc(-c2ccccc2)n1, CN(C(=S)NC(=O)C1CCCC1)c1ccccc1, CC(C)Cn1c(=O)c2sccc2n2c(CCCC(=O)NCC(C)c3ccccc3)nnc12 (stereo not given), COc1ccc(OCC(=O)Nc2c(C(=O)N3CCN(C)CC3)oc3ccccc23)cc1, Cc1ccc(-c2nc3ccccn3c2Nc2c(C)cccc2C)o1, CCCCCCN1C[C@H](n2cc(C3CC3)nn2)[C@@H](O)C[C@@H]1c1ccc(OC)cc1, Cc1cc(C(=O)Cn2ncc(Cl)c(Cl)c2=O)c(C)n1CC(F)(F)F, S=C(NCCc1ccccc1)Nc1c(Cl)cccc1Cl, COC(=O)C(Nc1ccccc1Cl)(c1cc(C)c(O)c(C)c1)C(F)(F)F (stereo not given), COC(=O)c1ccc(/C=C2\Oc3ccccc3NC2=O)cc1, O=C(Nc1cccc(O)c1)c1cc(-c2ccco2)on1, O=C(Nc1ccc(Cc2ccc(NC(=O)Nc3cccnc3)cc2)cc1)Nc1cccnc1, O=C(Nc1cc(S(=O)(=O)Nc2ccc(Cl)cc2)ccc1O)c1ccc(S(=O)(=O)N2CCCCCC2)cc1, COc1cc(CNCCO)cc(Cl)c1OCc1ccccc1Cl, C(=N\Nc1nc(-c2ccccc2)cs1)/c1ccco1, CCC1=NN(C(=O)c2ccc(Cl)cc2)C(O)(c2ccccc2)C1 (stereo not given), CN(Cc1ccccc1)C(=O)c1ccc(NC(=O)C2CCN(C(=O)OC(C)(C)C)CC2)cc1, O=S(=O)(NCC(c1ccco1)S(=O)(=O)c1cccs1)c1ccc(F)c(C(F)(F)F)c1 (stereo not given), COc1cc(/C=C(/C#N)C(=O)NCc2ccccc2)cc(OC)c1OC, COc1cccc(NC(=O)N(C)C[C@H]2OCc3cn(nn3)CCCC(=O)N([C@@H](C)CO)C[C@@H]2C)c1, CC(C)c1ccc(NC(=O)CSC2=Nc3ccccc3C3=NC(CC(=O)NCc4ccc(F)cc4)C(=O)N23)cc1 (stereo not given), COc1ccc(-c2cc(C3CCN(Cc4ccc([N+](=O)[O-])cc4)CC3)[nH]n2)cc1
